PubChem BioAssay AID743454 | Peter MacCallum Cancer Centre | 2014

- Test: 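Search for knock-downs that restore vorinostat killing in resistant colon cancer cells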 (primary screen)
- Cell system: human HCT116-VR colon cancer cells, selected for vorinostat resistance
- Knock-down reagent: siRNA pool against human genes, 40 nM siRNA pool
- Time to read-out: vorinostat for 24 h, read-out about 72 h after transfection
- Treatment: vorinostat at 2.5 µM final
- Read-out: 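Cell viability by CellTiter-Fluor and caspase 3/7 activity by luminescence, each scaled to mock wells per plate, duplicates averaged, then robust z-scored over all plates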
- Direction: viability robust z-score: higher = more viable cells than screen typical; caspase robust z-score: higher = more caspase 3/7 activity than screen typical
- Rule for the call: 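Hits are knock-downs in viability class RV1/RV2 or caspase class CA1/CA2, excluding ones that killed cells in the no-drug cell-count arm; hits then retested with single siRNAs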
The whole screen tested about 18,000 reagents; below is an unselected part. 450 of them (2.5%) were called active. 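Single biological run; no consistent viability z cut-off exists, so the class columns, not z-scores, define the calls.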 No sequences are given here.

gene	viability hit class	caspase hit class	viability robust z-score	caspase robust z-score	outcome
ATAD1 (GeneID 84896)	no change	no change	-0.4	0.17	inactive
SCLY (GeneID 51540)	no change	CA2 (caspase activation)	-2.26	7.74	active
ZNF264 (GeneID 9422)	no change	no change	0.62	0.62	inactive
HPDL (GeneID 84842)	no change	no change	0.09	-0.7	inactive
HSP90AA1 (GeneID 3320)	no change	no change	0.73	-0.98	inactive
ABCA6 (GeneID 23460)	no change	no change	-0.25	0.14	inactive
NDUFB2 (GeneID 4708)	no change	no change	-0.55	-0.06	inactive
ADGRE4P (GeneID 326342)	no change	no change	1.36	-0.08	inactive
RAD1 (GeneID 5810)	no change	no change	0.23	-0.49	inactive

2 successive records from above:
gene	viability hit class	caspase hit class	viability robust z-score	caspase robust z-score	outcome
HPDL (GeneID 84842)	no change	no change	0.09	-0.7	inactive
HSP90AA1 (GeneID 3320)	no change	no change	0.73	-0.98	inactive

More results:
gene	viability hit class	caspase hit class	viability robust z-score	caspase robust z-score	outcome
SPTY2D1 (GeneID 144108)	no change	no change	0.14	-1.01	inactive
SYTL3 (GeneID 94120)	RV2 (reduced viability)	no change	-3.27	1.43	active
DDX23 (GeneID 9416)	no change	no change	-1.86	0.84	inactive
AFMID (GeneID 125061)	no change	no change	-1.56	-0.5	inactive
OPALIN (GeneID 93377)	no change	no change	1.35	-0.48	inactive
PGM5 (GeneID 5239)	no change	no change	0.08	0.56	inactive
SUGP2 (GeneID 10147)	no change	no change	1.05	0.24	inactive
CLIP1 (GeneID 6249)	no change	no change	-0.46	-1.06	inactive
PIP4K2B (GeneID 8396)	no change	no change	0.15	0.35	inactive
ORC2 (GeneID 4999)	no change	no change	0.36	-0.92	inactive
GIPC1 (GeneID 10755)	no change	no change	0.02	-0.22	inactive
DHRS7B (GeneID 25979)	no change	no change	0.49	-0.46	inactive
CDCA7 (GeneID 83879)	no change	no change	-0.44	1.04	inactive
TNXB (GeneID 7148)	no change	no change	-0.8	2.29	inactive
